Measurements taken from patent US9090599B2, “Heteroarylmethyl amides” (Hoffman-La Roche Inc., priority 2010, dated 2015).

Sequences of proteins named here, by UniProt entry; tags and fusion partners are left off.
UniProt P34972, whole entry: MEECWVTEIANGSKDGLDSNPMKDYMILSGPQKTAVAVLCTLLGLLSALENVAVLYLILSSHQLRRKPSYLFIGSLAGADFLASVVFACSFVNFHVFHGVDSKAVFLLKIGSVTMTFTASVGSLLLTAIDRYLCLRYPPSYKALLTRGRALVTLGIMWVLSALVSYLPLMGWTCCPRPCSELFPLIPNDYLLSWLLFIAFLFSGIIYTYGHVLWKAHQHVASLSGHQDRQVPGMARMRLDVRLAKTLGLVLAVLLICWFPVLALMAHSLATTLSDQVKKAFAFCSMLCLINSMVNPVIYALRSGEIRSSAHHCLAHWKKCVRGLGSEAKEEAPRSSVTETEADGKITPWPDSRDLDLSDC
UniProt P21554, whole entry: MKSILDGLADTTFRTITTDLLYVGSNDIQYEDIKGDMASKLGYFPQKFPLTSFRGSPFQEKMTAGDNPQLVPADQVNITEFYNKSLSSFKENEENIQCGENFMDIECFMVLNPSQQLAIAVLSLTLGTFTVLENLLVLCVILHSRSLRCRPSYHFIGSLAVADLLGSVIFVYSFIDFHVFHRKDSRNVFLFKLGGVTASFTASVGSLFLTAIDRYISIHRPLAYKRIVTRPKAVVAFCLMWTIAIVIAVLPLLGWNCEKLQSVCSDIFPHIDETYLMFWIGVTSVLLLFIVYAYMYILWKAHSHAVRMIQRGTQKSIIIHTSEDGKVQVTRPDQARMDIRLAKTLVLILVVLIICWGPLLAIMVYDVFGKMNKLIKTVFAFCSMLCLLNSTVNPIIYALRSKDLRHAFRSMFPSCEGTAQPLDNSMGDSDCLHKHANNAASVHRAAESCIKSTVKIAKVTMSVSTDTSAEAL

How the values were obtained:
human CB2 receptor = biological target: T1, human CB2 receptor (Homo sapiens, UniProt P34972); assay: CB2 receptor affinity, [3H]-CP-55,940 displacement, HEK cell membranes; type: binding; conditions: 10 μM compound, radioligand [3H]-CP-55,940
T1 construct: expressed in transfected cells; host or cells: human embryonic kidney (HEK) cells, Semliki Forest Virus system, membrane preparations
Procedure: (§1) The affinity of the compounds of the invention for cannabinoid CB2 receptors was determined using membrane preparations of human embryonic kidney (HEK) cells in which the human CB2 receptor is transiently transfected using a Semliki Forest Virus system in conjunction with [^3H]-CP-55,940 as radioligand. After incubation of freshly prepared cell membrane preparation with the [^3H]-ligand, with or without addition of compounds of the invention, separation of bound and free ligand was performed by filtration over glass fiber filters. Radioactivity on the filter was measured by scintillation counting.
(§2) The ability of the compounds to displace the radioligand [^3H]-CP-55,940 was measured at a concentration of 10 μM and values provided as [% inhibition @ 10 μM] both for the CB 1 and CB2 receptor assay, The lower % inhibition is, the lower the likelihood of side effects based on CB1 or CB2 receptor inhibition is.

human CB1 receptor = biological target: T2, human CB1 receptor (Homo sapiens, UniProt P21554); assay: CB1 receptor affinity, [3H]-CP-55,940 displacement, HEK cell membranes; type: binding; conditions: 10 μM compound, radioligand [3H]-CP-55,940
T2 construct: expressed in transfected cells; host or cells: human embryonic kidney (HEK) cells, Semliki Forest Virus system, membrane preparations
Procedure: as §1, with “cannabinoid” for “cannabinoid CB2”, “CB1” for “CB2”, “[3H]-CP-55,940” for “[^3H]-CP-55,940”
as §2

ABCA1 protein = assay: Detection of upregulation of ABCA1 protein in THP-1 macrophage cells (ApoA-I binding, high content imaging); type: cell-based; conditions: 24 hrs with compound, AlexaFluor 647 ApoA-I binding, read-out: ABCA1 protein increasing efficacy EC50
Procedure: The ability of compounds of the invention to increase the level of ABCA1 protein is determined in replicate cultures of THP-1 macrophage cells in 96-well microplates. Cells are plated at an initial density of 100,000 cells/well in 100 μl medium and differentiated to adherent macrophages with the addition of PMA (100 nM) for 68 hrs in 10% fetal bovine serum, 3 μl/L of b-mercaptoethanol, RPMI-1640 medium. Then, cells are incubated with RPMI-1640 medium containing 1% FCS, 25 μg/ml acetylated LDL, for 24 hours at 37°. Following incubation with acetylated LDL, cells are washed twice with 50 μl PBS and incubated with 100 μl of RPMI-1640 medium containing the compound of interest solubilized in DMSO for an additional 24 hrs. The final DMSO concentration in presence of cells is maintained at 0.5%. […] Fixed stained cells are washed and kept in PBS at 4° C. and can be read immediately until one month after preparation. […]
Imaging and data collection were performed on an OPERA confocal microplate imaging reader using a 20× water immersion objective and UV360 or 405 laser to identify the cell nuclei and a 635 laser to identify the fluorescent ApoA-I. Eight fields of view are captured per well. […] Background fluorescence detected in control wells without ApoA-I was subtracted. […]

Row | Structure (SMILES) | inhibition at 10 µM (human CB2 receptor) | inhibition at 10 µM (human CB1 receptor) | EC50 (ABCA1 protein)
1 | COc1cc(CNC(=O)c2cc(-c3ccc(Cl)cc3)c(O[C@@H](C)C(F)(F)F)nn2)on1 [Example 24, (S)-5-(4-chlorophenyl)-N-((3-methoxyisoxazol-5-yl)methyl)-6-(1,1,1-trifluoropropan-2-yloxy)pyridazine-3-carboxamide] | 16% | 39% | 
2 | Cc1cc(-c2cc(C(=O)NCc3nc(C(F)(F)F)no3)ncc2OCC(F)(F)F)ccc1Cl [Example 77, 4-(4-chloro-3-methylphenyl)-5-(2,2,2-trifluoroethoxy)-N-((3-(trifluoromethyl)-1,2,4-oxadiazol-5-yl)methyl)picolinamide] | 11% | 4% | 330 nM
